These results are taken from PubChem BioAssay AID493014 (National Center for Advancing Translational Sciences (NCATS), 2011).

Each structure is given as a SMILES string. This is one part of the list. The main result of the screen is listed elsewhere. These columns were measured beside it and carry no call. Most of these compounds were active or inconclusive in the main read-out, so they are no random draw. The note in brackets gives the kind of curve behind each potency; many fits are weak.

A short description of the assay: qHTS Assay to Find Inhibitors of Chronic Active B-Cell Receptor Signaling. To be noted: ABC-DLBCL IkBa-CBG/CBR reporter, luminescence ratio (green luciferase fused to IkBa over red control in TMD8 lymphoma cells), 4 h. Summed up: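 Doxycycline induced both beetle luciferases in TMD8 lymphoma cells; IKK-driven degradation limits the IkappaBalpha-fused green signal, while red luminescence normalises for cell number and nonspecific effects. Compounds tested up to 46 uM, 4 hrs.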
(Quantitative high-throughput screening tests each substance at several concentrations.)

Setting [1] is: measured here: CBR red luminescence, cell number.
[2] abbreviates: measured here: IkBa-CBG green luminescence.

`Cc1cccc(OCC(=O)N(Cc2ccco2)C2CCS(=O)(=O)C2)c1C` (stereo not drawn): the AC50 – broadly, the concentration at which the activity in the assay is half-maximal – under setting [1] was 17.8 µM [falling, partial curve, poor fit].

On to `S=C1SCN(CC2CC2)CN1CC1CC1`, for which the concentration at half-maximal activity (AC50) under setting [1] is 8.91 µM [rising, partial curve, poor fit].

With `C=CC[n+]1c(/C=C2\C=Cc3cc(C)ccc3N2CC)ccc2ccccc21`, under setting [1], the AC50 is 28.2 µM [rising, single point]. With `O=C(COc1cc(O)c2c(=O)cc(-c3ccccc3)oc2c1)c1ccc(F)cc1`, under setting [1], the AC50 was 35.5 µM [rising, single point]. Still for that read-out and setting: the figure for `Cc1ccsc1C(=O)NCc1ccc(F)cc1` is 15.8 µM [falling, single point].

As for `CCCCOP(=O)(c1ccc(N(C)C)cc1)C(O)c1ccc(OC)c(OC)c1` (stereo not drawn), the AC50 under setting [1] is 22.4 µM [rising, single point]. For the compound `Cc1c(C)c2c(OCC(=O)N[C@@H](C(=O)O)c3ccccc3)cc3c(c2oc1=O)CCC(C)(C)O3`, the AC50 under setting [1] was 12.6 µM [falling, partial curve].

On to `COc1ccc(NCc2nc3ccccc3n2CCOc2ccccc2)cc1`, for which, under setting [1], the AC50 is 0.461 µM [falling, partial curve, poor fit]. Consider `Cc1ccccc1S(=O)Cc1ccc(C(=O)N2CCN(C(=O)c3ccco3)CC2)o1` (stereo not drawn), for which the AC50 under setting [1] was 15.8 µM [falling, partial curve, poor fit].

For `COc1ccc(Cl)cc1NC(=O)COc1cccc(-n2cnnn2)c1`, the AC50 under setting [1] is 7.31 µM [rising, partial curve, poor fit]. Same read-out and setting: as for `CC(C)CN1C(=O)C(=Nc2cccnc2)c2ccccc21`, the figure is 35.5 µM [rising, single point]; as for `Cc1occc1C(=O)Nc1ccc2c(c1)CCC2`, 2.59 µM [falling, partial curve].

Turning to `Cc1ccc(N(CC(=O)NCC2CCCO2)C(=O)CCC(=O)Nc2nccs2)cc1` (stereo not drawn), the AC50 under setting [1] is 10 µM [falling, partial curve, poor fit]. Still for that read-out and setting: as for `CC(C)(C)OC(=O)C[C@@H]1C/C=C\C[C@@H](CC(=O)N[C@@H](CO)Cc2ccccc2)C(=O)N2CCC[C@@H]2COC1=O`, the figure is 23.1 µM [rising, single point]; as for `O=C(O)C/C(=C\c1ccc(N2CCOCC2)c([N+](=O)[O-])c1)c1nc2ccccc2s1`, 20 µM [rising, partial curve, poor fit]; as for `CCOC(=O)N1CCN(C(=O)c2ccc(C)c(S(=O)(=O)N3CCCCC3)c2)CC1`, 17.8 µM [falling, single point]. Still for that read-out and setting: as for `Cc1ccc(OCCSc2nc3ccccc3n2CC(=O)O)c(C(C)C)c1`, the figure is 17.8 µM [rising, partial curve]; as for `Cc1cc(S(=O)(=O)N2CCN=C2c2ccccc2)c(C)cc1Cl`, 18.4 µM [rising, single point]; as for `CCOC(=O)c1cnn(-c2ccc(NS(=O)(=O)c3ccc(Cl)cc3)cc2)c1C(F)(F)F`, 5.01 µM [falling, full curve, poor fit]. Turning to `Clc1ccc(SCCn2ccnc2)cc1`, the AC50 under setting [1] was 11.2 µM [rising, partial curve, poor fit]. Turning to `CC(C)c1nc(SCC(=O)N2CC(=O)Nc3ccccc32)c2ccccc2n1`, the half-maximal activity concentration (AC50) under setting [1] was 20 µM [falling, partial curve, poor fit]. As to `COc1ccccc1C(=O)Oc1ccccc1C(=O)Nc1ccccc1`, the AC50 under setting [1] was 12.6 µM [falling, partial curve]. Consider `CS(=O)(=O)N(CC(=O)NC1CCCC1)c1ccc2c(c1)OCCO2`, for which the AC50 under setting [1] was 0.651 µM [falling, full curve, poor fit]. Regarding `CN(C)S(=O)(=O)c1c(Cl)cccc1Cl`, the AC50 under setting [1] was 2.91 µM [rising, full curve, poor fit].

As to `O=C(Nc1nc2ccc([N+](=O)[O-])cc2s1)c1ccco1`, the AC50 under setting [1] was 0.708 µM [falling, full curve]. As to `O=S(=O)(Nc1cccc2cccnc12)c1ccccc1`, the AC50 reads like this: under setting [1], 3.55 µM [rising, full curve, poor fit]; under setting [2], 3.55 µM [falling, full curve]. Take `Nc1c(N=Nc2ccccc2F)c(=O)[nH]n1-c1ccccc1`: the AC50 under setting [1] was 1.78 µM [falling, full curve].

As to `O=C(Nc1ccc2c(c1)CCCN2C(=O)c1cccs1)c1c(F)cccc1F`, the half-maximal activity concentration (AC50) under setting [1] was 8.91 µM [falling, partial curve, poor fit].

Take `COc1ccc(-c2noc(CSc3nnc(-c4ccncc4)n3-c3ccc(F)cc3)n2)cc1OC`: under setting [1], the AC50 is 0.00517 µM [rising, full curve, poor fit]. `CC1=C/C(=N\NC(=S)Nc2cccnc2)CC(C)(C)C1`: the AC50 was 3.98 µM [rising, full curve, poor fit] under setting [1] and 3.16 µM [falling, single point] under setting [2]. On to `Cc1ccc(NC(=O)c2ccc3c(c2)C(=O)N(c2cc(C)ccc2C)C3=O)nc1`, for which the AC50 under setting [1] is 0.794 µM [rising, full curve, poor fit].

For the compound `CCOC(=O)C(NCc1ccccc1)(NC(=O)c1ccccc1)C(F)(F)F` (stereo not drawn), the AC50 was 18.4 µM [rising, single point] under setting [1] and 20.6 µM [falling, partial curve, poor fit] under setting [2]. For `COCCNC(=S)N1CCN(c2nc(-c3ccc(F)cc3)cs2)CC1`, the AC50 under setting [1] was 35.5 µM [falling, single point]. `O=C(CCCc1ccccc1)Nc1nnc(C(F)(F)F)s1`: under setting [1], the AC50 is 35.5 µM [falling, single point]. For `CCOC(=O)c1ccc(NC(=S)NCC(O)c2ccccc2)cc1` (stereo not drawn), under setting [1], the concentration at half-maximal activity (AC50) is 11.2 µM [falling, partial curve]. Consider `O=C(Nc1nc2ccc(Cl)cc2s1)c1ccc(Br)o1`, for which, under setting [1], the AC50 was 0.366 µM [falling, full curve, poor fit]. In the case of `Cc1ccc(C(=O)CC(=O)c2cc(Cl)ccc2O)cc1`, under setting [1], the concentration at half-maximal activity (AC50) is 1.84 µM [rising, partial curve, poor fit]. With `Cc1ccc2occ(/C=N/NC(=O)c3ccccc3Br)c(=O)c2c1`, the AC50 under setting [1] is 2.82 µM [falling, full curve, poor fit].

Turning to `O=C(/C=C/c1ccccc1)NNC(=O)c1ccco1`, under setting [1], the AC50 is 10 µM [falling, partial curve]. On to `O=C(NC1(C(F)(F)F)N=C(c2ccccc2)NC1=O)c1ccc(Cl)cc1Cl` (stereo not drawn), for which the concentration at half-maximal activity (AC50) under setting [1] was 7.94 µM [rising, partial curve, poor fit].
